Assay results as given in PubChem BioAssay AID1347423 (Functional Genomics Laboratory (NCATS/FGL), 2020).
About 210 (0.4%) of roughly 52,000 sequences were called active.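 Rule for the calls: active = gene whose silencing raises cell survival under the drug, median off-target-corrected z-score across its silencing RNAs 2 or more; inactive = the rest.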 The list shows a part of the results.

assay: Resistance to Poly (ADP-Ribose) Polymerase inhibitor: Gene Identification via Genome-wide siRNA Screen; settings: mouse BRCA2 R2336H ES cells, olaparib, CellTiter-Glo viability; active compounds read high
In short: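 Mouse BRCA2 R2336H ES cells were reverse-transfected with siRNA (20 nM final), treated at 48 h with 500 nM olaparib, and read by CellTiter-Glo after 72 h. Scores: MAD-based z per siRNA, median per gene, seed off-target correction.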

Sequence	z-score
GGAACCUUAGAUGUUACUUTT against Scara3	inactive: -0.21
GGAUCCACAGAGAAACCCUTT against Gfi1b	inactive: 0.954
CCAUCGUCCAAAGUACAUGTT against Rbp4	inactive: 0.453
CCUGAGUAACAUUGCCGUGTT against Mgat1	inactive: -0.251
GGACAAGAACUUAGUGAUGTT against 1500005A01Rik	inactive: 1.02
GGAUGCUGAGCUUUCUGACTT against Fchsd1	inactive: 0.259
GGCUUUCUCAUAUAACUCCTT against Mest	inactive: -0.367
GCAGUAGCCGGAAGAUAACTT against Itln2	inactive: 0.684
CGGAUUAGUAUAAAUGUAGTT against Prss16	inactive: -1.01
CCUCUCACACACCAUAACATT against Polm	inactive: 0.584
GAAAACCAGCAUAAAGUCUTT against Mlr1	inactive: 2.7
CCUAACCAUUGCUUAUAUATT against Stat1	inactive: 1.26
CCUUUUCCAUGCCUACUCCTT against Bag3	inactive: -0.0599
GGAUGUUGUUUAUCGAGGATT against Surb7	inactive: 1.28
GGAAUUCUUGAAGAUUCCCTT against C920001D21Rik	inactive: 0.398
CCUACGUGAUAUCCUUUUATT against Vrk1	inactive: 0.149
GGUUCCAUGUUCAGAAUUUTT against Dibd1	inactive: 1.21
GGCAGGAGAGGCAUCUUUUTT against Arhgap20	inactive: 0.596
GGACCCUGAACAGACAACGTT against Asna1	inactive: 1.04
GGAAUCCUUGGACCUGAGGTT against Tnni3	inactive: -1.08
GGAGAACACUUUAAUGCUGTT against 9230106D23Rik	inactive: 0.667
CCAGACAGAAGGGUUAGCUTT against Mrps36	inactive: -2.45
GGCUGGAACCCUAAUUUCUTT against Tpo	inactive: -0.559
GCGAGAUCUGUCCUUACAGTT against Ildr1	inactive: 0.234
GCAAUUAAUAGAAUUAGCCTT against Slc8a1	inactive: 0.233
GGAAGCCUGAAACUCAGCATT against Srpk1	inactive: -0.676
GCUAUAUGACAACCUCAGCTT against Slamf8	inactive: -0.289
CCAUUCUCAGGCAAAUACUTT against AL024069	inactive: -0.944
GGCUUCACAAGGACCUUUGTT against BC024139	inactive: -1.96

Part of the list above, with each value named:
GCGAGAUCUGUCCUUACAGTT against Ildr1
  z-score: inactive: 0.234
GGCUUCACAAGGACCUUUGTT against BC024139
  z-score: inactive: -1.96
